This passage reports binding results from PMC7475098.

Amino acid sequences for entries named in this document (tags omitted).
UniProt Q6ETX0: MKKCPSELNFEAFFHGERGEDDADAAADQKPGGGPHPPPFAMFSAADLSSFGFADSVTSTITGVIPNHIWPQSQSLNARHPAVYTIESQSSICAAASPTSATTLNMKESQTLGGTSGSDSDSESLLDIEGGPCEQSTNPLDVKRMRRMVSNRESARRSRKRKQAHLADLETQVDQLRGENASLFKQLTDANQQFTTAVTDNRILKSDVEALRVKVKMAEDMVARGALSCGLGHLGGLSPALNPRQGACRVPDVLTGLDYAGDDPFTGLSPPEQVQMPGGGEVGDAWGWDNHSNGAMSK

Results are given in words; binding and its absence hold for the method and conditions named. For some of these results: In cells and extracts the contact can be indirect. Some results given as binding are weak or reduced against the parent protein; the word gives no strength. For some of these results: Where a sequence is shown, tags or fusion partners need not be part of it.

For assay [1], the target named is T1, OsSAPK9–nYFP (rice (Oryza sativa L.)) (UniProt Q75V57).
T1 sequence: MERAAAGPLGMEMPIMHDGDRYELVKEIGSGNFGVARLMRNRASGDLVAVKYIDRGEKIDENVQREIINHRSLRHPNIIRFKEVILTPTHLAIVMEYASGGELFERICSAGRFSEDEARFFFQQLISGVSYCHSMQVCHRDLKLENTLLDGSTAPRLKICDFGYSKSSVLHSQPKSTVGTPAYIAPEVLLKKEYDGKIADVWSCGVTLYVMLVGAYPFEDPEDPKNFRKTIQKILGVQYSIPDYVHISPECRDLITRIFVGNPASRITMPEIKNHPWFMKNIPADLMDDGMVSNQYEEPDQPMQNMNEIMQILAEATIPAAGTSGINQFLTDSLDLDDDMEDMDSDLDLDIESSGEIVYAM
Kind of assay: split reporter; BiFC with N- and C-terminal eYFP fragments; agroinfiltrated Nicotiana benthamiana leaves; confocal microscopy two days after incubation.

In assay [2] the target is T2, OsSAPK10 (pGBKT7-OsSAPK10) (rice (Oryza sativa L.)) (UniProt Q75H77).
T2 sequence: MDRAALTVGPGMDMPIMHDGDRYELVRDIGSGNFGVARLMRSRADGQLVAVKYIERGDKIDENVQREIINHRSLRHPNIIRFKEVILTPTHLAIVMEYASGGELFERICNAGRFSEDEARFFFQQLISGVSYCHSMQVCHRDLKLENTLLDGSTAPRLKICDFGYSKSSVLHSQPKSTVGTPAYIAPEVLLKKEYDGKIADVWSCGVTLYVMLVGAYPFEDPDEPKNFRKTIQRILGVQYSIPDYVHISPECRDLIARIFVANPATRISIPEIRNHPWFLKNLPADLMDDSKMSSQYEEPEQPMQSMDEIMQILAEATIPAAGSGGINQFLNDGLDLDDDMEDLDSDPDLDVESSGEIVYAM
Kind of assay: two-hybrid; yeast strain Y2HGold; pGBKT7-OsSAPK8/9/10 + pGADT7-OsbZIP20; growth on SD/Leu-/Trp-/His+2 mM 3-AT at 30 °C for 2–3 d.

Assay [3] has as its target T3, OsSAPK8 (pGBKT7-OsSAPK8) (rice (Oryza sativa L.)) (UniProt Q7Y0B9).
T3 sequence: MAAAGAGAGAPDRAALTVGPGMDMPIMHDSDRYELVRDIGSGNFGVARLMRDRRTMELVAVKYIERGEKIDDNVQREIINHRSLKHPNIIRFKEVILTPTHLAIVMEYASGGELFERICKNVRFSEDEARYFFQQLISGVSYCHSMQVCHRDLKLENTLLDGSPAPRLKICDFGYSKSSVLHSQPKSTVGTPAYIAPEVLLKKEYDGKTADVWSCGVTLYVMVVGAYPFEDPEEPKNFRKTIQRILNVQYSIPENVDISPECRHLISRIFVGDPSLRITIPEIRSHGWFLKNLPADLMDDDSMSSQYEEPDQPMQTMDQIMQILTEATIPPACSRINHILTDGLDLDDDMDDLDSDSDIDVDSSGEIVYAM
Described as above.

For assay [4], the target named is T4, OsSAPK9 (pGBKT7-OsSAPK9) (rice (Oryza sativa L.)) (UniProt Q75V57).
T4 sequence: T1 sequence
Described as above.

Consider “cYFP–OsbZIP20 (from UniProt Q6ETX0 1-298)”, for which, in assay [1], the binding entry is on record as “binds”.
Consider “OsbZIP20 (pGADT7-OsbZIP20) (from UniProt Q6ETX0 1-298)”, for which the binding entry in assay [2] is “no binding”; in assay [3] it was “no binding”; in assay [4] it was “binds”.
